Laboratory results reported in the supplement of paper PMC4635364.
Structures can show the parent of a compound that is named as a salt. Some of the results follow. Single values are uncertain here, since repeats match poorly.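 Cells: ReNCell VM human fetal ventral-midbrain neural progenitors, differentiated mitogen-free. Blinded raters compared doublecortin-stained (early neurons) or tyrosine hydroxylase-stained (dopaminergic neurons) images with untreated wells, where 0 means no change. After repeats and both raters were averaged, compounds scoring 2 or above became hits for retesting.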

test system: ReNCell VM; test: neuronal differentiation score (DCX+ cell fraction vs untreated, manual image score) (score (-3 to 3)); higher = more neuronal differentiation; conditions: library: LOPAC; 2 uM; 2 weeks

Neuronal differentiation score, inactive:
COc1ccccc1N1CCN(CCCNc2c(C)c(=O)n(C)c(=O)n2C)CC1 [Urapidil, 5-Methyl-] 0
COC(=O)C(C)(N)Cc1ccc(O)cc1 (racemic) [alpha-Methyl-DL-tyrosine methyl ester hydrochloride] 0
Nc1ncnc2c1ncn2[C@@H]1O[C@H](COP(=O)(O)CP(=O)(O)OP(=O)(O)O)[C@H](O)C1O (stereo partly drawn) [alpha,beta-Methylene adenosine 5'-triphosphate dilithium] 0
CC(=O)OCC1=C(C(=O)O)N2C(=O)[C@@H](NC(=O)Cc3cccs3)[C@H]2SC1 [Cephalothin sodium] 1
CC(N)=O [Acetamide] 0

same assay, conditions: library: Prestwick; 2 uM; 2 weeks

Neuronal differentiation score, inactive:
CC(CN(C)C)CN1c2ccccc2CCc2ccccc21 (centres undefined) [Trimipramine maleate salt] 0
C[C@H]1[C@H](NC(=O)/C(=N\OC(C)(C)C(=O)O)c2csc(N)n2)C(=O)N1S(=O)(=O)O [Aztreonam] 0
CCOC(=O)OC(C)OC(=O)[C@@H]1N2C(=O)[C@@H](NC(=O)[C@H](N)c3ccccc3)[C@H]2SC1(C)C (some centres undefined) [Bacampicillin hydrochloride] 0
COc1ccc(-c2cc(=S)ss2)cc1 [Anethole-trithione] 0
Cn1c(=O)c2c(ncn2CC2OCCO2)n(C)c1=O [Doxofylline] 0
CCC(=O)OCC(=O)[C@@]1(OC(=O)CC)[C@@H](C)C[C@H]2[C@@H]3CCC4=CC(=O)C=C[C@]4(C)[C@@]3(Cl)[C@@H](O)C[C@@]21C [Beclomethasone dipropionate] 0
Nc1ccn([C@@H]2O[C@H](CO)[C@@H](O)[C@@H]2O)c(=O)n1 [Cytarabine] 0
CN(C)CCOC(c1ccc(Cl)cc1)c1ccccn1 (centres undefined) [Carbinoxamine maleate salt] 0

Looked up by structure from the entries so far, two records:
Neuronal differentiation score, inactive:
CN(C)CCOC(c1ccc(Cl)cc1)c1ccccn1 (centres undefined) [Carbinoxamine maleate salt] 0
CC(CN(C)C)CN1c2ccccc2CCc2ccccc21 (centres undefined) [Trimipramine maleate salt] 0

same assay, conditions: library: Spectrum; 2 uM; 2 weeks

Neuronal differentiation score, inactive:
Cc1ccc2c(Br)cc(Br)c(OC(=O)c3ccccc3)c2n1 0
CSc1ccc2c(c1)C(N1CCN(C)CC1)Cc1ccccc1S2 (centres undefined) 0
O=C(N[C@H](CO)[C@H](O)c1ccc([N+](=O)[O-])cc1)C(Cl)Cl 0
COc1ccc2c(c1)OCC(Cc1ccc(OC)c(OC(C)=O)c1)C2=O (centres undefined) 0
CC[C@H]1OC(=O)[C@H](C)[C@@H](O[C@H]2C[C@@](C)(OC)[C@@H](O)[C@H](C)O2)[C@H](C)[C@@H](O[C@@H]2O[C@H](C)C[C@H](N(C)C)[C@H]2O)[C@](C)(OC)C[C@@H](C)C(=O)[C@H](C)[C@@H](O)[C@]1(C)O 0
CC1CC(OC(=O)C(O)c2ccccc2)CC(C)(C)C1 (centres undefined) 0
Cc1c[nH]c2ccccc12 0
Cc1c(C(=O)O)c(O)cc2c1C(=O)c1c(O)c([C@@H]3O[C@H](CO)[C@@H](O)[C@H](O)[C@H]3O)c(O)c(O)c1C2=O 0
Cc1ncc([N+](=O)[O-])n1CC(O)CCl (centres undefined) 0
Cl.N=C(N)NCCC[C@H](N)C(=O)O 1
O=C(CCc1ccc(O)cc1)c1c(O)cc(O)cc1O[C@@H]1OC(CO)[C@@H](O)[C@@H](O)C1O (some centres undefined) 0
C(=C\c1ccccc1)/CN1CCN(C(c2ccccc2)c2ccccc2)CC1 0
CC(=O)[C@H]1CC[C@H]2[C@@H]3C=CC4=CC(=O)CC[C@@]4(C)[C@@H]3CC[C@]12C -1
OC[C@@H](O)[C@@H](O)[C@H](O)[C@H](O)CO 0
CC(=O)Nc1ccc(CC(=O)O)cc1 0
C=CC(C)(O)CCC=C(C)CCC=C(C)C (mixture of isomers) 0
CCCC(=O)O[C@]1(C(=O)CO)CC[C@H]2[C@@H]3CCC4=CC(=O)CC[C@]4(C)[C@H]3[C@@H](O)C[C@@]21C 0
CC(=O)OCC[N+](C)(C)C 0
c1ccc([C@H]2CN3CCSC3=N2)cc1 0
CN1CCc2c(c3ccccc3n2Cc2ccccc2)C1 0
Nc1nc(F)nc2c1ncn2[C@@H]1O[C@H](COP(=O)(O)O)[C@@H](O)[C@@H]1O 0
